# Measurements reported in PubChem BioAssay AID504834 (National Center for Advancing Translational Sciences (NCATS), 2011).
# In all, about 320,000 compounds went through this assay and about 22,000 (6.9%) were called active. This list was built around the results that the source calls inconclusive (neither active nor inactive); the mix of calls is not that of the screen. Calls come from the whole dose curve; as a rule, active = well fitted inhibition curve with a large enough effect; inconclusive = small, poorly fitted or top-dose-only effect, or another doubt; inactive = no such curve, though single readings can be large or run the other way. Potencies beside an inconclusive call are fits to weak or partial responses and may not hold up.
# Assay: Primary qHTS for delayed death inhibitors of the malarial parasite plastid, 96 hour incubation
# Details: P. falciparum luciferase reporter growth; series mostly up to 28.7 µM; activity change, negative = inhibition: at the top concentration
# Outline: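 Delayed-death screen, second-generation endpoint: infected erythrocytes, 2% hematocrit, 0.05% parasitemia final; 96 hours at 37 C, 5% CO2; luciferase detection reagent; luminescence decrease equals reduced growth.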
# % is set by controls: 0 for no effect and ±100 for the full control effect; potency is the fitted concentration of half-maximal effect.
Compound,Potency,"activity change, negative = inhibition"
COc1ccc(-c2oc3ncnc(NCCCN(C)C)c3c2-c2ccc(OC)cc2)cc1,"inconclusive: 10.4 µM [inhibitor, partial curve]",
Cc1nn(Cc2ccc([N+](=O)[O-])cc2)c(=O)n1-c1ccccc1,"inconclusive: 0.0037 µM [inhibitor, full curve, poor fit]",
Cc1ccc(C)c(OCc2nc(-c3cccnc3)no2)c1,,inactive: 28.7%
O=C(c1ccccc1Cl)N1CCC(c2nc3c(nnn3Cc3ccco3)c(=O)[nH]2)CC1,"inconclusive: 18.5 µM [inhibitor, single point]",
Cc1ccc(C)c(N(Cc2ccccc2F)S(C)(=O)=O)c1,"inconclusive: 18.5 µM [inhibitor, single point]",
COc1ccc(Cc2c(O)nc(SCC(=O)NC(C)(C)C)[nH]c2=O)cc1,"inconclusive: 9.28 µM [inhibitor, single point]",
Cc1cccc(C)c1NC(=O)C1CCCN1C(=O)NCc1ccccc1 (stereo not drawn),"inconclusive: 0.928 µM [inhibitor, partial curve, poor fit]",
COc1ccc(NS(=O)(=O)c2ccc3c(c2)NC(=O)CO3)c(OC)c1,,inactive: -0.674%
O=C(CSc1nnc(Cc2ccccc2)o1)Nc1ccc2c(c1)OCO2,,inactive: 184%
Cc1ccc(C2C(S(C)(=O)=O)=C(O)C(=O)N2c2ccccc2)cc1 (stereo not drawn) (tested in a mixture with another compound),,inactive: 88.6%
CN(c1ccccc1)S(=O)(=O)c1ccc(Cl)c(C(=O)NCc2ccccc2CN2CCCC2)c1,"inconclusive: 11.7 µM [inhibitor, single point]",
COc1c(C)cccc1C(=O)NC(=S)Nc1ccccc1N1CCCC1,"inconclusive: 13.1 µM [inhibitor, single point]",
CC(OC(=O)c1ccc(-n2cnnn2)cc1)C(=O)NCc1ccccc1 (stereo not drawn),"inconclusive: 1.17 µM [inhibitor, partial curve, poor fit]",
O=C(Cc1cccs1)N1CCN(c2ccc([N+](=O)[O-])cc2)CC1,,inactive: 68.1%
O=C(OCC(=O)c1c[nH]c2ccccc12)c1ccc([N+](=O)[O-])s1,"inconclusive: 18.5 µM [inhibitor, single point]",
CCOc1ccccc1CNC(=O)c1ccc(Sc2ccc(Cl)cc2)c(NC(C)=O)c1,"inconclusive: 18.5 µM [inhibitor, single point]",
COCCN(Cc1nc2ccccc2c(=O)[nH]1)C(=O)COc1c(C)cc(Cl)cc1C,"inconclusive: 18.5 µM [inhibitor, single point]",
COc1ccccc1NC(=S)N1CCC(NC(=O)NC23CC4CC(CC(C4)C2)C3)CC1,"inconclusive: 0.928 µM [inhibitor, full curve, poor fit]",
CCc1c(C)sc(NC(=O)OC)c1C(=O)N1CCCCC1,,inactive: 2.05%
COc1cc(S(=O)(=O)Nc2ccccc2)ccc1N=Cc1c(C)[nH]n(-c2ccc(C)cc2)c1=O,,inactive: 23.8%
COc1cc2c(cc1OC)C(c1ccc(C)cc1)NC(=O)C2 (stereo not drawn),"inconclusive: 14.7 µM [inhibitor, single point]",
Cc1oc2nc(SCCCC(=O)NCCCO)nc(N)c2c1C,"inconclusive: 18.5 µM [inhibitor, single point]",
O=C(c1cc(S(=O)(=O)N2CCOCC2)ccc1F)N(CCc1ccccc1)Cc1ccccc1,"inconclusive: 13.1 µM [inhibitor, partial curve]",

# A few values from above:
# activity change, negative = inhibition with Cc1ccc(C)c(OCc2nc(-c3cccnc3)no2)c1 is entered as inactive: 28.7%
# Potency with O=C(c1cc(S(=O)(=O)N2CCOCC2)ccc1F)N(CCc1ccccc1)Cc1ccccc1 is entered as inconclusive: 13.1 µM [inhibitor, partial curve]
# activity change, negative = inhibition with O=C(Cc1cccs1)N1CCN(c2ccc([N+](=O)[O-])cc2)CC1 is entered as inactive: 68.1%

# Carrying on.

Compound,Potency,"activity change, negative = inhibition"
Cc1cc(C(=O)N2CCN(C(c3ccccc3)c3ccccc3)CC2)no1,"inconclusive: 5.22 µM [inhibitor, partial curve, poor fit]",
O=C1c2ccccc2C2=Nc3ccccc3SC(c3ccc(Cl)cc3)C12 (stereo not drawn),,inactive: -24.6%
CCCn1ccnc1SCC(=O)Nc1c(C)n(C)n(-c2ccccc2)c1=O,,inactive: -27.8%
CC1CCCN(Cc2c(O)ccc3c(=O)c(-c4nc5ccccc5s4)c(N)oc23)C1 (stereo not drawn),active: 0.0657 µM,
Cc1cc(-c2nnc(CCC(=O)NCc3ccc(F)c(F)c3)o2)no1,"inconclusive: 18.5 µM [inhibitor, single point]",
O=C(NCCc1ccccn1)C1CCCN(S(=O)(=O)Cc2ccccc2)C1 (stereo not drawn),active: 3.7 µM,
COc1ccc(CN(C)CC(=O)NC(=O)NCc2ccccc2)c(OC)c1,"inconclusive: 8.28 µM [inhibitor, partial curve, poor fit]",
CCCCNC(=O)Nc1ccccc1Br,,inactive: -1.86%
CCCCC(=O)Nc1ccc(NC(=O)c2ccc3c(c2)OCO3)cc1OC,"inconclusive: 18.5 µM [inhibitor, single point]",
Cc1[nH][nH]c(=O)c1C(c1ccc(N(C)C)c(Br)c1)c1c(C)[nH][nH]c1=O,"inconclusive: 9.28 µM [inhibitor, single point]",
Cc1cc(C)c(C)c(Cn2c(CO)nc3ccccc32)c1C,"inconclusive: 18.5 µM [inhibitor, single point]",
N=C1C(c2ccccc2)=C(O)CN1CCCO,active: 14.7 µM,
O=c1c2[nH]c3ccccc3c2ncn1Cc1ccccn1,"inconclusive: 10.4 µM [inhibitor, single point]",
CCCn1c(=O)c2ccccc2n2c(SCN3C(=O)c4ccccc4C3=O)nnc12,"inconclusive: 1.04 µM [inhibitor, full curve, poor fit]",
CCCSc1ccc(-c2nn(-c3ccccc3)cc2/C=C(/C#N)C(=O)NCCCOC)cc1,active: 3.7 µM,
CCCC(NS(=O)(=O)c1ccc(-c2ccc(=O)[nH]n2)s1)c1cccs1 (stereo not drawn),"inconclusive: 18.5 µM [inhibitor, single point]",
Cc1cc(C)n2nc(SCC(=O)Nc3ccccc3)nc2n1,"inconclusive: 14.7 µM [inhibitor, partial curve, poor fit]",
Cc1nc2ccccc2c(=O)n1NC(=O)c1ccc([N+](=O)[O-])cc1Cl,"inconclusive: 8.28 µM [inhibitor, partial curve, poor fit]",
CCC(NC(=O)Nc1cc(C)on1)(C(F)(F)F)C(F)(F)F,,inactive: 1.9%
COc1ccc(CN2CCC(n3nccc3NC(=O)CCc3ccccc3)CC2)c(C)c1C,"inconclusive: 18.5 µM [inhibitor, single point]",
N#Cc1ccc(C(=O)NNC(=O)c2ccncc2)cc1,,inactive: -0.612%
COc1ccc(C(=O)N2CCN(c3ccccc3)CC2)cc1S(=O)(=O)N1CCCC1,"inconclusive: 18.5 µM [inhibitor, single point]",
COC(=O)c1ccc(COc2cccc3c2OC(C)(C)C3)cc1,"inconclusive: 18.5 µM [inhibitor, single point]",

Compound,Potency,"activity change, negative = inhibition"
COc1ccccc1CNC(=O)C1CCN(S(=O)(=O)c2c(C)noc2C)CC1,,inactive: -1.56%
Cc1ccc(S(=O)(=O)N2CCN(CC(=O)NCC3(N4CCOCC4)CCCCC3)CC2)cc1,,inactive: -9.34%
CCOC(=O)C1=CSC2=NS(=O)(=O)CCN12,,inactive: 4.47%
O=C(/C=C(/c1ccc(Cl)cc1)n1cncn1)c1ccccc1,"inconclusive: 0.0037 µM [inhibitor, full curve, poor fit]",
CCN(CC)c1ccc(NC(=O)COC(=O)c2cccs2)cc1,,inactive: 16.7%
CC(=O)n1c(-c2ccccc2)c(CO)c2ccccc21,"inconclusive: 16.5 µM [inhibitor, single point]",
CC(C)[C@H](NC(=O)N1c2ccccc2NC(=O)[C@@H]1C(C)C)C(=O)N[C@@H](Cc1c[nH]c2ccccc12)C(=O)O,"inconclusive: 0.522 µM [inhibitor, full curve, poor fit]",
COc1ccc(NC(=O)CSc2n[nH]c(CNc3cccc(C)c3)n2)cc1,"inconclusive: 5.86 µM [inhibitor, partial curve]",
CCn1c(-c2cc(OC)ccc2OC)csc1=Nc1c(C)n(C)n(-c2ccccc2)c1=O,"inconclusive: 4.65 µM [inhibitor, partial curve, poor fit]",
Cn1c(=O)c2c(SCC(=O)NCc3ccco3)nc(CC(C)(C)C)nc2n(C)c1=O,"inconclusive: 10.4 µM [inhibitor, single point]",
S=C(NCCCN1CCOCC1)N1CCOCC1,,inactive: 19.1%
O=C(c1ccco1)[C@@H]1[C@@H]2C(=O)N(c3ccc(Br)cc3)C(=O)[C@@H]2C2c3ccccc3C=CN21 (stereo partly drawn),"inconclusive: 13.1 µM [inhibitor, single point]",
CC(C)Cn1c(SCC(=O)c2ccc(Cl)s2)nnc1-c1ccco1,active: 11.7 µM,
CCN(CC)S(=O)(=O)c1cc(NC(=O)C2CSC3(C)CCC(=O)N23)ccc1C (stereo not drawn),"inconclusive: 18.5 µM [inhibitor, single point]",
CCOC(=O)C1CN(S(=O)(=O)c2ccccc2)CCN1S(=O)(=O)c1ccccc1 (stereo not drawn),"inconclusive: 16.5 µM [inhibitor, single point]",
CC1CCc2cc(F)ccc2N1S(=O)(=O)c1ccc(Cl)nc1 (stereo not drawn),"inconclusive: 5.22 µM [inhibitor, partial curve, poor fit]",
O=C(COC(=O)c1ccccc1N1C(=O)C2C3CCC(C3)C2C1=O)c1ccccc1 (stereo not drawn),active: 2.33 µM,
Cc1ccc(NS(=O)(=O)c2cc(OCC(N)=O)c(C)cc2Cl)cc1C,"inconclusive: 18.5 µM [inhibitor, single point]",
O=C(CCc1nc(-c2ccccc2Cl)no1)NCCc1ccccc1,,inactive: 1.75%
CCn1ccc(C(=O)Oc2ccc(Cl)cc2)n1,,inactive: 8.05%
COc1nc(N(C)S(=O)(=O)c2ccc(C)cc2)nc(C)c1Br,"inconclusive: 9.28 µM [inhibitor, single point]",
O=C(c1noc2c1CCCC2)N1CCCC(N2CCN(c3ccccc3F)CC2)C1 (stereo not drawn),"inconclusive: 11.7 µM [inhibitor, partial curve, poor fit]",

# Compounds above that contain a tert-butyl group (two):
Compound,Potency,"activity change, negative = inhibition"
COc1ccc(Cc2c(O)nc(SCC(=O)NC(C)(C)C)[nH]c2=O)cc1,"inconclusive: 9.28 µM [inhibitor, single point]",
Cn1c(=O)c2c(SCC(=O)NCc3ccco3)nc(CC(C)(C)C)nc2n(C)c1=O,"inconclusive: 10.4 µM [inhibitor, single point]",
